Results are given in words; binding and its absence hold for the method and conditions named. Some results given as binding are weak or reduced against the parent protein; the word gives no strength.
Assays:
[1] = molecular target: human CC chemokine receptor 4 (CCR4) (human) (UniProt P51679); test: competition flow cytometry on DT-40-CCR4+ cells: unlabelled competitor against ca. 10 nM biotinylated MDC, streptavidin-PE [a]
[2] = molecular target: human CC chemokine receptor 4 (CCR4) (human) (UniProt P51679); test: competition flow cytometry on CCRF-CEM cells: unlabelled competitor against ca. 20 nM biotinylated MDC, streptavidin-PE; the text notes that MDC may also bind another receptor on these cells [d]
[3] = molecular target: human CC chemokine receptor 4 (CCR4) (human) (UniProt P51679); test: competition flow cytometry on CCRF-CEM cells: unlabelled competitor against ca. 10 nM biotinylated MDC, streptavidin-PE; the text notes that MDC may also bind another receptor on these cells [b]
[4] = molecular target: human CC chemokine receptor 4 (CCR4) (human) (UniProt P51679); test: competition flow cytometry on DT-40-CCR4+ cells: unlabelled competitor against ca. 20 nM biotinylated TARC, with 1 % BSA, streptavidin-PE [b]
[5] = molecular target: human CC chemokine receptor 4 (CCR4) (human) (UniProt P51679); test: competition flow cytometry on CCRF-CEM cells: unlabelled competitor against ca. 20 nM biotinylated TARC, without BSA, streptavidin-PE [c]
[6] = molecular target: human CC chemokine receptor 4 (CCR4) (human) (UniProt P51679); test: competition flow cytometry on DT-40-CCR4+ cells: unlabelled competitor against ca. 20 nM biotinylated TARC, without BSA, streptavidin-PE [a]
[7] = molecular target: human CC chemokine receptor 4 (CCR4) (human) (UniProt P51679); test: competition flow cytometry on CCRF-CEM cells: unlabelled competitor against ca. 20 nM biotinylated TARC, with 1 % BSA, streptavidin-PE [d]
[8] = molecular target: human CC chemokine receptor 4 (CCR4) (human) (UniProt P51679); test: flow cytometry on CCR4-transfected DT40 cells pre-incubated with 0, 1 or 10 ng/ml MDC, then stained with 0.5 µg/ml scFv (11F, 9E, 17G, 1O, KM3060var) and anti-c-myc antibody
[9] = molecular target: human CC chemokine receptor 4 (CCR4) (human) (UniProt P51679); test: competition flow cytometry on CCRF-CEM cells: unlabelled competitor against ca. 20 nM biotinylated MDC, streptavidin-PE; the text notes that MDC may also bind another receptor on these cells [c]
[10] = molecular target: human CC chemokine receptor 4 (CCR4) (human) (UniProt P51679); test: competition flow cytometry: unlabelled competitor against a fixed amount of biotinylated MDC; cell line not named on the sheet or in the legend

The chains behind the UniProt entries cited, without tags or fusion partners.
UniProt P51679: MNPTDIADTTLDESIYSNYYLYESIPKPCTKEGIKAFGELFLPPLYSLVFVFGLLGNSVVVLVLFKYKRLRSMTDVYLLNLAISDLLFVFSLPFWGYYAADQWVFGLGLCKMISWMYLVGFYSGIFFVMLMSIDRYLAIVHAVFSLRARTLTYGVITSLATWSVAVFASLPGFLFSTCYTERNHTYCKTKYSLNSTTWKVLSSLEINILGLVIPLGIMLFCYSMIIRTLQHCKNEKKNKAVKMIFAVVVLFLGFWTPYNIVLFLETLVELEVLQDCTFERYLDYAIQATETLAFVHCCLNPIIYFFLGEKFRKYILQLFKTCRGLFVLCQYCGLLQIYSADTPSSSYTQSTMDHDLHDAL

Measured: binding

B1: macrophage-derived chemokine (MDC) (ligand, UniProt O00626 25-93, looked up)
chain: GPYGANMEDSVCCRDYVRYRLPLRVVKHFYWTSDSCPRPGVVLLTFRDKEICADPRVPWVKMILNKLSQ
binds: [1] | [2] | [3] | [4] | [5] | [6] | [7] | [8] | [9] | [10]

— patent US20160208003A1
